Reference: the supplement of paper PMC10849652
This is one part of the list.

Chains of the proteins cited; added tags and fusions are not shown. Lines headed by an entry give the natural chain unless they say otherwise; changes in a name come on top.
UniProt Q96EV2: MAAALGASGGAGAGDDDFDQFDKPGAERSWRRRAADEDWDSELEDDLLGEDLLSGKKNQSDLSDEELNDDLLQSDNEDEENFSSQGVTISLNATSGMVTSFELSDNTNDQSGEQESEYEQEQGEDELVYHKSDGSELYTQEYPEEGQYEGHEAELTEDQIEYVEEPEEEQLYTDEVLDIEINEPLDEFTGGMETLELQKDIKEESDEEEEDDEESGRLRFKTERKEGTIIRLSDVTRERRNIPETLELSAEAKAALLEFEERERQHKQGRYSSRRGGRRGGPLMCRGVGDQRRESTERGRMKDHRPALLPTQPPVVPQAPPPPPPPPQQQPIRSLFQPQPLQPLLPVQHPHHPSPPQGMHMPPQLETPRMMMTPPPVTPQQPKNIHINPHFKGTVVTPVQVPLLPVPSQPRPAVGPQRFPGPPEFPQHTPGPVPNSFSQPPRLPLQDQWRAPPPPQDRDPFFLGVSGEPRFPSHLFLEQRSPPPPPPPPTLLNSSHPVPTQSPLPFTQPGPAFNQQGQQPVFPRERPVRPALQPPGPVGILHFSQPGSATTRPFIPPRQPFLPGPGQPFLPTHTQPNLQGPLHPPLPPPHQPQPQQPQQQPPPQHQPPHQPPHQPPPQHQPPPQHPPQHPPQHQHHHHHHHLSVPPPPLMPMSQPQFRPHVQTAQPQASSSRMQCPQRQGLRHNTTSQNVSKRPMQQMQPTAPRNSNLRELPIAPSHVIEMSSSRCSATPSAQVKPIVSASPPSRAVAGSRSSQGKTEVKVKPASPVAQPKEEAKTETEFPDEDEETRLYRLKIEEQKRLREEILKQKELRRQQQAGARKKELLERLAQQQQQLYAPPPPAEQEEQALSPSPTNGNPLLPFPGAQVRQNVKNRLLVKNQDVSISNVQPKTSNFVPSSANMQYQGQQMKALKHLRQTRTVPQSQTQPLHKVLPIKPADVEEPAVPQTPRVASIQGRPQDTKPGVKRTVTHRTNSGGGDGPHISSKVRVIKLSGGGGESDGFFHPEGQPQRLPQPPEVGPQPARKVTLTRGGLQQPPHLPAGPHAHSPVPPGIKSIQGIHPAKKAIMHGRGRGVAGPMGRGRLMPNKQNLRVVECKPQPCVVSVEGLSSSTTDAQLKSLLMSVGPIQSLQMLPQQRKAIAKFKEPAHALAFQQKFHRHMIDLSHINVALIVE
UniProt Q2KHR2: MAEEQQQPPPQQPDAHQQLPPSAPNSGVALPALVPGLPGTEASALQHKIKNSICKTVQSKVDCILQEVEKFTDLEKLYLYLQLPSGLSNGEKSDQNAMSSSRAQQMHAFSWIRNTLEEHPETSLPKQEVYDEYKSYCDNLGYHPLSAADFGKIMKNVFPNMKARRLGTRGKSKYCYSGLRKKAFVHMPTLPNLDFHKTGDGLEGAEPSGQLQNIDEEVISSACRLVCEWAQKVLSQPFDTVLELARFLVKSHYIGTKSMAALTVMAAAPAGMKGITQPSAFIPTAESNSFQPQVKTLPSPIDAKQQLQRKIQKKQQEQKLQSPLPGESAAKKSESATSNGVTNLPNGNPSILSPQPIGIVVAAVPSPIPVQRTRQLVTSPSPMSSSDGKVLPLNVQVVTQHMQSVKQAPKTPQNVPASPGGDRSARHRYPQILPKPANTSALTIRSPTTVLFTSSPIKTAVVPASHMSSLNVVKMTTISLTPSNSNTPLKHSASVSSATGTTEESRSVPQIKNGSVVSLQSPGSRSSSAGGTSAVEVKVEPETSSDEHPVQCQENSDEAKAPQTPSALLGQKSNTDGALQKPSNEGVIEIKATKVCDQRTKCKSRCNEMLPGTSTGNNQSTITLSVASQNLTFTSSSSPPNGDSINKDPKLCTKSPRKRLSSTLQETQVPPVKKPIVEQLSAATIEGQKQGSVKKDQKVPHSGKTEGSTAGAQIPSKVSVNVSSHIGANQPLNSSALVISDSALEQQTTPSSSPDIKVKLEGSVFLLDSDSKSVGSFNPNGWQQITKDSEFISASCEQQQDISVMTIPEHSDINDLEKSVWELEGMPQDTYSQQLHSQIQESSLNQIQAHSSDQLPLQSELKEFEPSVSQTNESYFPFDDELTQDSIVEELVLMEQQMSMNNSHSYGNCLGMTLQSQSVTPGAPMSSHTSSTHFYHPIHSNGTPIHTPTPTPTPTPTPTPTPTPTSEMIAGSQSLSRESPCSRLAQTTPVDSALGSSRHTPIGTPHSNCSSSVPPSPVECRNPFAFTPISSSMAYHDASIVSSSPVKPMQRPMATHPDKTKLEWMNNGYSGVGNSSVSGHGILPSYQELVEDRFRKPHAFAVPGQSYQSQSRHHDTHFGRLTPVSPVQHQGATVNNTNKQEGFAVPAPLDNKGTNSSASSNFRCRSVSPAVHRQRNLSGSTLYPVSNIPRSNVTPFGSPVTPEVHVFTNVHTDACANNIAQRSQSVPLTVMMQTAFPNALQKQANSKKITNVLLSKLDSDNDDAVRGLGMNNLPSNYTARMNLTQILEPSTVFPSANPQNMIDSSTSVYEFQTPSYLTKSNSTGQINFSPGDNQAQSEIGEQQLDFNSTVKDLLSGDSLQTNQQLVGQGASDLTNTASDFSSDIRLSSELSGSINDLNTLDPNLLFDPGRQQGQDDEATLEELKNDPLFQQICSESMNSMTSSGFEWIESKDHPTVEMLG
UniProt Q14498: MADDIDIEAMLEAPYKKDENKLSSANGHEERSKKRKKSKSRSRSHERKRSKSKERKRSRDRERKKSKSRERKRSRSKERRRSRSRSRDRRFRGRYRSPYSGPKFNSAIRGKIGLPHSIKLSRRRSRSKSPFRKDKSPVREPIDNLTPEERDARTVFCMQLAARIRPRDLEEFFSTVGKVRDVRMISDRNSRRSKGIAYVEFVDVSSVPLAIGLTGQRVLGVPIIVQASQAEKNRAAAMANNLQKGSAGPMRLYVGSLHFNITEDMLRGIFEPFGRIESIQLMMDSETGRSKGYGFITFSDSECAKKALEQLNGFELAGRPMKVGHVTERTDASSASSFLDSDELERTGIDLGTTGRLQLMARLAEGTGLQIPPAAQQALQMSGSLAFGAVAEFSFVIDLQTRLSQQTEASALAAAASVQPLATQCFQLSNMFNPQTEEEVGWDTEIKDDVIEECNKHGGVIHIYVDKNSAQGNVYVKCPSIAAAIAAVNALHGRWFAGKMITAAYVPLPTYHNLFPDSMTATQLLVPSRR
UniProt Q8NDN9: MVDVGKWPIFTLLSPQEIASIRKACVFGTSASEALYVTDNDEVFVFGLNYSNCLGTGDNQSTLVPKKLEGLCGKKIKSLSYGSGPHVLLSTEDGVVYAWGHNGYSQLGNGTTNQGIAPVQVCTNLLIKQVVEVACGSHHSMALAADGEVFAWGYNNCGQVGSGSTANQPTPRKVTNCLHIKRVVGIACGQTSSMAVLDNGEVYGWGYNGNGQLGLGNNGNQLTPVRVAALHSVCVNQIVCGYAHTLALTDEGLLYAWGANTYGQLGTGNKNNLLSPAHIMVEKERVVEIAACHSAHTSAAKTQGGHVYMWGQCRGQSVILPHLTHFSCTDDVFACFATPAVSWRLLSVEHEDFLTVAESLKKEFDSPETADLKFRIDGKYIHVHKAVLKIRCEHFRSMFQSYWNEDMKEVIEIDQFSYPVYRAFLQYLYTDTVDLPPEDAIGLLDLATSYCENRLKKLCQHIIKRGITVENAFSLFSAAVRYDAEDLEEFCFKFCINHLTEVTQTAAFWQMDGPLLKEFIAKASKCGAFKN
UniProt Q96T37: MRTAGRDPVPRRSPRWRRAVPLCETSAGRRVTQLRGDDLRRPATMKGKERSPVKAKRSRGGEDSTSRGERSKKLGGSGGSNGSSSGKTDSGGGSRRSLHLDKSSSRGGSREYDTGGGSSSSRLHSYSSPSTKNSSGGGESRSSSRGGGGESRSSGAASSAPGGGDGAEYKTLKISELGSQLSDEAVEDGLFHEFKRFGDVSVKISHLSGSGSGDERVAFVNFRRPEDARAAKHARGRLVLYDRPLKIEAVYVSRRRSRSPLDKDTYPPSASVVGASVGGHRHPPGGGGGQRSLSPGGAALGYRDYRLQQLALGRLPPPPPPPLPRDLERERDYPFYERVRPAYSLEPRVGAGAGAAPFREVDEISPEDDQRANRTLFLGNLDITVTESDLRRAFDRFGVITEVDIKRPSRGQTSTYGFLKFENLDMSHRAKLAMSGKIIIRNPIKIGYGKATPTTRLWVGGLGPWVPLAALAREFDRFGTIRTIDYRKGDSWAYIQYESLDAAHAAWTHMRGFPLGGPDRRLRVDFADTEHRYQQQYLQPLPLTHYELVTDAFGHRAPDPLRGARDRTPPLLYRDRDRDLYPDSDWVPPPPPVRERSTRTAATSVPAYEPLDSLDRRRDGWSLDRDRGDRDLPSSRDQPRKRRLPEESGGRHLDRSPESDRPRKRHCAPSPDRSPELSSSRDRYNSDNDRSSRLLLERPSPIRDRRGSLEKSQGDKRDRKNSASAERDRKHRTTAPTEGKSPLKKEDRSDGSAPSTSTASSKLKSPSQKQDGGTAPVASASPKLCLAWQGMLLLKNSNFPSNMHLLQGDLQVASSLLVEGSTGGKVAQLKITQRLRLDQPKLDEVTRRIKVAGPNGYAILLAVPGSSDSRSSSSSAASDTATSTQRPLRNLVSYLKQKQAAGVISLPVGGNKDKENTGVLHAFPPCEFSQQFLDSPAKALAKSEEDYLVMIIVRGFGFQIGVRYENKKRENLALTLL
UniProt Q9H4X1: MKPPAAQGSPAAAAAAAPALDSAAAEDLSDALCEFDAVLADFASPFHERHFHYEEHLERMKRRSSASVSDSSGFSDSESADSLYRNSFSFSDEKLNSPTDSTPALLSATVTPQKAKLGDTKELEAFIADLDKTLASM
UniProt P49796: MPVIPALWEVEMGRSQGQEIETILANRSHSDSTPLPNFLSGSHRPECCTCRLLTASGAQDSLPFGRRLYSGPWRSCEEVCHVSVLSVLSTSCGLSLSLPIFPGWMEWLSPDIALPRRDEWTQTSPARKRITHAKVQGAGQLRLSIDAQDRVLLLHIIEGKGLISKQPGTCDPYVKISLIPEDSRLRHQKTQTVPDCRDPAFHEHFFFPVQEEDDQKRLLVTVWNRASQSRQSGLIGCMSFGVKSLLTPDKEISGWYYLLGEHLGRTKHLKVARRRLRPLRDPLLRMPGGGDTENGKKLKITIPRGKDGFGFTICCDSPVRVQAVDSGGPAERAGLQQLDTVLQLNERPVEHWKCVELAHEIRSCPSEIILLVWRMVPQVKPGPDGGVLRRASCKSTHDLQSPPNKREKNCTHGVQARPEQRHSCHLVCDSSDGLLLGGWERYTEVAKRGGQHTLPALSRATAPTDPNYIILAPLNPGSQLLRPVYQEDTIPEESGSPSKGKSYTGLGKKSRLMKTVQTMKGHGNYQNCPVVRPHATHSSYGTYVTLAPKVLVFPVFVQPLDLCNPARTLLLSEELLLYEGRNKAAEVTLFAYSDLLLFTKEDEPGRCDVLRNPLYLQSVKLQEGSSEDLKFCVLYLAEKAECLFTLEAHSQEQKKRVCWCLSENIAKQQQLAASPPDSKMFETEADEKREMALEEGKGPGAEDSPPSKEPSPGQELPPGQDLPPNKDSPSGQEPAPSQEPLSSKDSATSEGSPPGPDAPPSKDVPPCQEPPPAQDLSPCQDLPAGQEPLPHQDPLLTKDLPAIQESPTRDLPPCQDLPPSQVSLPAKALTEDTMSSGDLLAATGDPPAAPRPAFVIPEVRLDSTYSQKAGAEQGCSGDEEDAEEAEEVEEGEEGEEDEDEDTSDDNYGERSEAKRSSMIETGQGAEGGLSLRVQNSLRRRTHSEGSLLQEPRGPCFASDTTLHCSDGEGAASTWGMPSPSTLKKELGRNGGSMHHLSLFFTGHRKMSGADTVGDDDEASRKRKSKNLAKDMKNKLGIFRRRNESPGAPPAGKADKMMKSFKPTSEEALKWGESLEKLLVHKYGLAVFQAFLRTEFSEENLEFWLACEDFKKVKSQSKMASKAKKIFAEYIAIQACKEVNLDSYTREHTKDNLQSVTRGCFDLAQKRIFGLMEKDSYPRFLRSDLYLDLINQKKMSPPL
UniProt O14593: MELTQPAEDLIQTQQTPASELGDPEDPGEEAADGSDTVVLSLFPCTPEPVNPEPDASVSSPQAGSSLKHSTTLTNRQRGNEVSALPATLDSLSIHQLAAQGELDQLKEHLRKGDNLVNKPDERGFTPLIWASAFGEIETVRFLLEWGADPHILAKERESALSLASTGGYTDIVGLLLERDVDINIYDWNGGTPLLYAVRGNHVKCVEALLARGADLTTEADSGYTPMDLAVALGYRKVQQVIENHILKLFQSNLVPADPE
UniProt Q6NUK4: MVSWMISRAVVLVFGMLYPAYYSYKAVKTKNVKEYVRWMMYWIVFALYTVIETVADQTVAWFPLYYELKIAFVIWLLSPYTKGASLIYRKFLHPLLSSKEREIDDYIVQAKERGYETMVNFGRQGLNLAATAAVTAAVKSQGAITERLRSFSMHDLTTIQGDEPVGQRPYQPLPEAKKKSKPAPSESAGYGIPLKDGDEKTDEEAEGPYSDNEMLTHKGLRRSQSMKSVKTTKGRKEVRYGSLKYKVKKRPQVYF

Experiments:
Test in all cases: log2 fold change, soluble protein after heating vs DMSO (PISA); higher = thermal stabilisation; K562 lysate, 10 uM; active = over 0.2 and 3.5 SD of the protein, either way, in both replicates (recomputed)
alvocidib = compound: CN1CC[C@H](c2c(O)cc(O)c3c(=O)cc(-c4ccccc4Cl)oc23)[C@H](O)C1 [alvocidib]
Method in brief: (§1)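 K562 pellets were dounce-homogenised in PBS pH 7.4 with 1 mM MgCl2, and the crude extract at 1 mg/mL protein was treated with 10 μM compound for 30 min. Aliquots were heated for 3 min across 48°C-58°C, pooled, and brought to 0.5% NP-40 at 4°C; soluble protein was the supernatant after 21,000xg for 90 min. Soluble protein was quantified by TMTpro 16plex LC-MS/MS with channel sums equalised, and reported as log2 fold change in thermal stability against DMSO controls, with values from duplicates.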

Tubastatin A = compound: CN1CCc2c(c3ccccc3n2Cc2ccc(C(=O)NO)cc2)C1 [Tubastatin A]
Method in brief: as §1

[1] = compound: CNC(=O)C1=CC=CC=C1NC2=NC(=NC=C2Cl)NC3=C(C=C(C=C3)N4CCOCC4)OC
Method in brief: as §1

defactinib = compound: CNC(=O)c1ccc(Nc2ncc(C(F)(F)F)c(NCc3nccnc3N(C)S(C)(=O)=O)n2)cc1 [defactinib]
Method in brief: as §1

[2] = compound: CNc1nc(-c2ccc3c(N)n[nH]c3c2)cc(N2C[C@@H](C(=O)NC3CCCCC3)CC[C@H]2C)n1
Method in brief: as §1

encorafenib = compound: COC(=O)N[C@@H](C)CNc1nccc(-c2cn(C(C)C)nc2-c2cc(Cl)cc(NS(C)(=O)=O)c2F)n1 [encorafenib]
Method in brief: as §1

[3] = compound: COC(=O)[C@H](CCSC)NC(=O)C1=C(C=C(C=C1)NC[C@H](CS)N)C2=CC=CC=C2
Method in brief: as §1

alisertib = compound: COc1cc(Nc2ncc3c(n2)-c2ccc(Cl)cc2C(c2c(F)cccc2OC)=NC3)ccc1C(=O)O [alisertib]
Method in brief: as §1

[4] = compound: COc1cc2nc(-c3cc(F)ccc3O)nc(N[C@@H]3CNC[C@H]3C(C)(C)O)c2cc1OC
Method in brief: as §1

gefitinib = compound: COc1cc2ncnc(Nc3ccc(F)c(Cl)c3)c2cc1OCCCN1CCOCC1 [gefitinib]
Method in brief: as §1

lapatinib = compound: CS(=O)(=O)CCNCc1ccc(-c2ccc3ncnc(Nc4ccc(OCc5cccc(F)c5)c(Cl)c4)c3c2)o1 [lapatinib]
Method in brief: as §1

pictilisib = compound: CS(=O)(=O)N1CCN(Cc2cc3nc(-c4cccc5[nH]ncc45)nc(N4CCOCC4)c3s2)CC1 [pictilisib]
Method in brief: as §1

crizotinib = compound: C[C@@H](Oc1cc(-c2cnn(C3CCNCC3)c2)cnc1N)c1c(Cl)ccc(F)c1Cl [crizotinib]
Method in brief: as §1

[5] = compound: C[C@H](C1=CC=C(C=C1)C(=O)NC2=C3C=CNC3=NC=C2)N
Method in brief: as §1

duvelisib = compound: C[C@H](Nc1ncnc2nc[nH]c12)c1cc2cccc(Cl)c2c(=O)n1-c1ccccc1 [duvelisib]
Method in brief: as §1

gandotinib = compound: Cc1cc(Nc2cc(CN3CCOCC3)c3nc(C)c(Cc4ccc(Cl)cc4F)n3n2)n[nH]1 [gandotinib]
Method in brief: as §1

tozasertib = compound: Cc1cc(Nc2cc(N3CCN(C)CC3)nc(Sc3ccc(NC(=O)C4CC4)cc3)n2)n[nH]1 [tozasertib]
Method in brief: as §1

doramapimod = compound: Cc1ccc(-n2nc(C(C)(C)C)cc2NC(=O)Nc2ccc(OCCN3CCOCC3)c3ccccc23)cc1 [doramapimod]
Method in brief: as §1

bafetinib = compound: Cc1ccc(NC(=O)c2ccc(CN3CC[C@H](N(C)C)C3)c(C(F)(F)F)c2)cc1Nc1nccc(-c2cncnc2)n1 [bafetinib]
Method in brief: as §1

[6] = compound: Cc1cccc(CC(=O)N2CCc3c2ccc(-c2cn(C)c4ncnc(N)c24)c3F)n1
Method in brief: as §1

Measured: log2 fold change

RBM33 (UniProt Q96EV2)
inactive: alvocidib 0.047 | Tubastatin A -0.05 | [1] -0.015 | defactinib 0.004 | [2] -0.042 | encorafenib 0.021 | [3] -0.043 | alisertib 0.011 | [4] -0.021 | gefitinib 0.012 | lapatinib 0.016 | pictilisib -0.04 | crizotinib -0.019 | [5] 0.128 | duvelisib -0.039 | gandotinib -0.058 | tozasertib 0.062 | doramapimod 0.058 | bafetinib -0.041 | [6] -0.028

RFX7 (UniProt Q2KHR2)
inactive: alvocidib 0.028 | Tubastatin A -0.044 | [1] -0.038 | defactinib 0.132 | [2] 0.024 | encorafenib 0.167 | [3] 0.037 | alisertib -0.081 | [4] 0.159 | gefitinib 0.005 | lapatinib 0.045 | pictilisib -0.017 | crizotinib -0.021 | [5] -0.002 | duvelisib 0.038 | gandotinib -0.194 | tozasertib 0.107 | doramapimod -0.031 | bafetinib 0.03 | [6] 0.051

RBM39 (UniProt Q14498)
inactive: alvocidib -0.176 | Tubastatin A -0.04 | [1] -0.055 | defactinib -0.095 | [2] 0.081 | encorafenib 0.045 | [3] 0.013 | alisertib 0.023 | [4] -0.007 | gefitinib 0.003 | lapatinib 0.066 | pictilisib 0.025 | crizotinib -0.017 | [5] -0.109 | duvelisib 0.02 | gandotinib -0.087 | tozasertib 0.047 | doramapimod 0.124 | bafetinib -0.054 | [6] 0.123

RBM48 isoform 2 (UniProt Q5RL73)
inactive: alvocidib -0.06 | Tubastatin A -0.141 | [1] -0.007 | defactinib -0.213 | [2] 0.004 | encorafenib 0.081 | [3] -0.04 | crizotinib -0.039 | [5] 0.055 | duvelisib 0.049 | gandotinib 0.08 | tozasertib -0.008 | doramapimod 0.016 | [6] -0.09

RCBTB1 (UniProt Q8NDN9)
inactive: alvocidib -0.013 | Tubastatin A -0.174 | [1] -0.029 | alisertib 0.249 | gefitinib -0.065 | crizotinib -0.085 | [5] 0.202 | gandotinib -0.046 | doramapimod 0.016 | [6] 0.039

RGS14 (UniProt O43566)
inactive: alvocidib -0.344 | Tubastatin A 0.053 | [1] 0.005 | [2] -0.011 | encorafenib -0.229 | [3] -0.114 | alisertib -0.053 | [4] -0.033 | gefitinib -0.152 | lapatinib 0.043 | pictilisib 0.039 | crizotinib -0.012 | [5] -0.397 | duvelisib 0.039 | gandotinib 0.197 | tozasertib 0.103 | doramapimod -0.014 | bafetinib -0.283 | [6] 0.18

Retrieved one by one from the list above (two):
RBM33 (UniProt Q96EV2)
inactive: alvocidib 0.047 | Tubastatin A -0.05 | [1] -0.015 | defactinib 0.004 | [2] -0.042 | encorafenib 0.021 | [3] -0.043 | alisertib 0.011 | [4] -0.021 | gefitinib 0.012 | lapatinib 0.016 | pictilisib -0.04 | crizotinib -0.019 | [5] 0.128 | duvelisib -0.039 | gandotinib -0.058 | tozasertib 0.062 | doramapimod 0.058 | bafetinib -0.041 | [6] -0.028

RBM48 isoform 2 (UniProt Q5RL73)
inactive: alvocidib -0.06 | Tubastatin A -0.141 | [1] -0.007 | defactinib -0.213 | [2] 0.004 | encorafenib 0.081 | [3] -0.04 | crizotinib -0.039 | [5] 0.055 | duvelisib 0.049 | gandotinib 0.08 | tozasertib -0.008 | doramapimod 0.016 | [6] -0.09

Carrying on.

RBM15 (UniProt Q96T37)
inactive: alvocidib 0.246 | Tubastatin A -0.19 | [1] 0.04 | defactinib 0.024 | [2] 0.035 | encorafenib 0.042 | [3] -0.007 | [4] -0.046 | lapatinib -0.015 | pictilisib -0.102 | crizotinib -0.035 | [5] -0.099 | duvelisib 0.05 | gandotinib -0.011 | tozasertib -0.117 | doramapimod 0.016 | bafetinib 0.137 | [6] 0.069

RGCC (UniProt Q9H4X1)
inactive: alvocidib 0 | Tubastatin A -0.114 | [1] 0.136 | defactinib -0.08 | [5] -0.153 | gandotinib 0.111 | [6] 0.025

RGS3 (UniProt P49796)
inactive: alvocidib 0.039 | Tubastatin A 0.106 | [1] 0.001 | alisertib 0.044 | [4] 0.032 | gefitinib 0.011 | lapatinib 0.05 | pictilisib -0.043 | crizotinib 0.016 | [5] -0.132 | gandotinib 0.265 | doramapimod -0.02 | bafetinib -0.074 | [6] 0

RBIS (UniProt Q8N0T1)
inactive: alvocidib -0.042 | Tubastatin A 0.034 | [1] 0.056 | defactinib 0.072 | [2] -0.025 | encorafenib 0.055 | [3] -0.036 | pictilisib 0.014 | crizotinib -0.04 | [5] -0.089 | duvelisib 0.005 | gandotinib 0.143 | tozasertib -0.033 | doramapimod 0.087 | bafetinib 0 | [6] 0.101

RFXANK (UniProt O14593)
inactive: alvocidib 0.095 | Tubastatin A -0.103 | [1] 0.105 | defactinib 0.15 | [2] -0.033 | encorafenib 0.047 | [3] -0.01 | [4] 0.102 | lapatinib 0.154 | pictilisib 0 | crizotinib -0.022 | [5] 0.072 | duvelisib 0.03 | gandotinib -0.079 | tozasertib 0.053 | doramapimod 0.032 | bafetinib -0.11 | [6] -0.044

REEP3 (UniProt Q6NUK4)
inactive: alvocidib -0.006 | Tubastatin A -0.124 | [1] -0.065 | defactinib -0.029 | alisertib -0.039 | [4] 0.021 | gefitinib 0.076 | lapatinib -0.008 | pictilisib -0.034 | crizotinib 0.036 | [5] 0.06 | gandotinib -0.007 | doramapimod -0.012 | bafetinib 0.036 | [6] 0
